Patent US20080021045A1, “7-Amino-5-Halopyrazolopyrimidines with a Fungicidal Action” (BAYER CROPSCIENCE AKTIENGESELLSCHSFT, priority 2003, published 2008)
Some results were stated once for a whole list of compounds, not compound by compound.

What was measured:
[1] = test system: Botrytis cinerea; assay: Botrytis test (bean) / protective; type: in vivo; details: bean plants, protective spray, application rate 500 g/ha, evaluation 2 days after inoculation
[2] = test system: Venturia inaequalis; assay: Venturia test (apple) / protective; type: in vivo; details: apple plants, protective spray, application rate 100 g/ha, evaluation 10 days after inoculation

## CCC(C)c1c(Cl)nc2c(C#N)cnn2c1NC(C)C(C)C (centres unmarked) [Example 1, 3-cyano-5-chloro-6-(sec-butyl)-7-[(S+)-3-methyl-2-butylamino]pyrazolo[1,5-a]pyrimidine]
[1]
  efficacy: more than 80%
[2]
  efficacy: more than 80%
